Laboratory results as given in paper PMC12604043.

B1: 28S rRNA (cytosine-C(5))-methyltransferase NOP2 (endogenous, human) (protein, UniProt P46087 1-812)
chain: MGRKLDPTKEKRGPGRKARKQKGAETELVRFLPAVSDENSKRLSSRARKRAAKRRLGSVEAPKTNKSPEAKPLPGKLPKGISAGAVQTAGKKGPQSLFNAPRGKKRPAPGSDEEEEEEDSEEDGMVNHGDLWGSEDDADTVDDYGADSNSEDEEEGEALLPIERAARKQKAREAAAGIQWSEEETEDEEEEKEVTPESGPPKVEEADGGLQINVDEEPFVLPPAGEMEQDAQAPDLQRVHKRIQDIVGILRDFGAQREEGRSRSEYLNRLKKDLAIYYSYGDFLLGKLMDLFPLSELVEFLEANEVPRPVTLRTNTLKTRRRDLAQALINRGVNLDPLGKWSKTGLVVYDSSVPIGATPEYLAGHYMLQGASSMLPVMALAPQEHERILDMCCAPGGKTSYMAQLMKNTGVILANDANAERLKSVVGNLHRLGVTNTIISHYDGRQFPKVVGGFDRVLLDAPCSGTGVISKDPAVKTNKDEKDILRCAHLQKELLLSAIDSVNATSKTGGYLVYCTCSITVEENEWVVDYALKKRNVRLVPTGLDFGQEGFTRFRERRFHPSLRSTRRFYPHTHNMDGFFIAKFKKFSNSIPQSQTGNSETATPTNVDLPQVIPKSENSSQPAKKAKGAAKTKQQLQKQQHPKKASFQKLNGISKGADSELSTVPSVTKTQASSSFQDSSQPAGKAEGIREPKVTGKLKQRSPKLQSSKKVAFLRQNAPPKGTDTQTPAVLSPSKTQATLKPKDHHQPLGRAKGVEKQQLPEQPFEKAAFQKQNDTPKGPQPPTVSPIRSSRPPPAKRKKSQSRGNSQLLLS
B2: regulator of nonsense transcripts 3B (endogenous, human) (protein, UniProt Q9BZI7 1-483)
chain: MKEEKEHRPKEKRVTLLTPAGATGSGGGTSGDSSKGEDKQDRNKEKKEALSKVVIRRLPPTLTKEQLQEHLQPMPEHDYFEFFSNDTSLYPHMYARAYINFKNQEDIILFRDRFDGYVFLDNKGQEYPAIVEFAPFQKAAKKKTKKRDTKVGTIDDDPEYRKFLESYATDNEKMTSTPETLLEEIEAKNRELIAKKTTPLLSFLKNKQRMREEKREERRRREIERKRQREEERRKWKEEEKRKRKDIEKLKKIDRIPERDKLKDEPKIKVHRFLLQAVNQKNLLKKPEKGDEKELDKREKAKKLDKENLSDERASGQSCTLPKRSDSELKDEKPKRPEDESGRDYREREREYERDQERILRERERLKRQEEERRRQKERYEKEKTFKRKEEEMKKEKDTLRDKGKKAESTESIGSSEKTEKKEEVVKRDRIRNKDRPAMQLYQPGARSRNRLCPPDDSTKSGDSAAERKQESGISHRKEGGEE
B3: DNA repair protein complementing XP-C cells (protein, UniProt Q01831 1-940)
chain: MARKRAAGGEPRGRELRSQKSKAKSKARREEEEEDAFEDEKPPKKSLLSKVSQGKRKRGCSHPGGSADGPAKKKVAKVTVKSENLKVIKDEALSDGDDLRDFPSDLKKAHHLKRGATMNEDSNEEEEESENDWEEVEELSEPVLGDVRESTAFSRSLLPVKPVEIEIETPEQAKTRERSEKIKLEFETYLRRAMKRFNKGVHEDTHKVHLLCLLANGFYRNNICSQPDLHAIGLSIIPARFTRVLPRDVDTYYLSNLVKWFIGTFTVNAELSASEQDNLQTTLERRFAIYSARDDEELVHIFLLILRALQLLTRLVLSLQPIPLKSATAKGKKPSKERLTADPGGSSETSSQVLENHTKPKTSKGTKQEETFAKGTCRPSAKGKRNKGGRKKRSKPSSSEEDEGPGDKQEKATQRRPHGRERRVASRVSYKEESGSDEAGSGSDFELSSGEASDPSDEDSEPGPPKQRKAPAPQRTKAGSKSASRTHRGSHRKDPSLPAASSSSSSSKRGKKMCSDGEKAEKRSIAGIDQWLEVFCEQEEKWVCVDCVHGVVGQPLTCYKYATKPMTYVVGIDSDGWVRDVTQRYDPVWMTVTRKCRVDAEWWAETLRPYQSPFMDREKKEDLEFQAKHMDQPLPTAIGLYKNHPLYALKRHLLKYEAIYPETAAILGYCRGEAVYSRDCVHTLHSRDTWLKKARVVRLGEVPYKMVKGFSNRARKARLAEPQLREENDLGLFGYWQTEEYQPPVAVDGKVPRNEFGNVYLFLPSMMPIGCVQLNLPNLHRVARKLDIDCVQAITGFDFHGGYSHPVTDGYIVCEEFKDVLLTAWENEQAVIERKEKEKKEKRALGNWKLLAKGLLIRERLKRRYGPKSEAAAPHTDAGGGLSSDEEEGTSSQAEAARILAASWPQNREDEEKQKLKGGPKKTKREKKAAASHLFPFEQL
B4: protein phosphatase 1G (endogenous, human) (protein, UniProt O15355 1-546)
chain: MGAYLSQPNTVKCSGDGVGAPRLPLPYGFSAMQGWRVSMEDAHNCIPELDSETAMFSVYDGHGGEEVALYCAKYLPDIIKDQKAYKEGKLQKALEDAFLAIDAKLTTEEVIKELAQIAGRPTEDEDEKEKVADEDDVDNEEAALLHEEATMTIEELLTRYGQNCHKGPPHSKSGGGTGEEPGSQGLNGEAGPEDSTRETPSQENGPTAKAYTGFSSNSERGTEAGQVGEPGIPTGEAGPSCSSASDKLPRVAKSKFFEDSEDESDEAEEEEEDSEECSEEEDGYSSEEAENEEDEDDTEEAEEDDEEEEEEMMVPGMEGKEEPGSDSGTTAVVALIRGKQLIVANAGDSRCVVSEAGKALDMSYDHKPEDEVELARIKNAGGKVTMDGRVNGGLNLSRAIGDHFYKRNKNLPPEEQMISALPDIKVLTLTDDHEFMVIACDGIWNVMSSQEVVDFIQSKISQRDENGELRLLSSIVEELLDQCLAPDTSGDGTGCDNMTCIIICFKPRNTAELQPESGKRKLEEVLSTEGAEENGNSDKKKKAKRD
B5: ataxin-2-like protein (protein, UniProt Q8WWM7 1-1075)
chain: MLKPQPLQQPSQPQQPPPTQQAVARRPPGGTSPPNGGLPGPLATSAAPPGPPAAASPCLGPVAAAGSGLRRGAEGILAPQPPPPQQHQERPGAAAIGSARGQSTGKGPPQSPVFEGVYNNSRMLHFLTAVVGSTCDVKVKNGTTYEGIFKTLSSKFELAVDAVHRKASEPAGGPRREDIVDTMVFKPSDVMLVHFRNVDFNYATKDKFTDSAIAMNSKVNGEHKEKVLQRWEGGDSNSDDYDLESDMSNGWDPNEMFKFNEENYGVKTTYDSSLSSYTVPLEKDNSEEFRQRELRAAQLAREIESSPQYRLRIAMENDDGRTEEEKHSAVQRQGSGRESPSLASREGKYIPLPQRVREGPRGGVRCSSSRGGRPGLSSLPPRGPHHLDNSSPGPGSEARGINGGPSRMSPKAQRPLRGAKTLSSPSNRPSGETSVPPPPAVGRMYPPRSPKSAAPAPISASCPEPPIGSAVPTSSASIPVTSSVSDPGVGSISPASPKISLAPTDVKELSTKEPGRTLEPQELARIAGKVPGLQNEQKRFQLEELRKFGAQFKLQPSSSPENSLDPFPPRILKEEPKGKEKEVDGLLTSEPMGSPVSSKTESVSDKEDKPPLAPSGGTEGPEQPPPPCPSQTGSPPVGLIKGEDKDEGPVAEQVKKSTLNPNAKEFNPTKPLLSVNKSTSTPTSPGPRTHSTPSIPVLTAGQSGLYSPQYISYIPQIHMGPAVQAPQMYPYPVSNSVPGQQGKYRGAKGSLPPQRSDQHQPASAPPMMQAAAAAGPPLVAATPYSSYIPYNPQQFPGQPAMMQPMAHYPSQPVFAPMLQSNPRMLTSGSHPQAIVSSSTPQYPSAEQPTPQALYATVHQSYPHHATQLHAHQPQPATTPTGSQPQSQHAAPSPVQHQAGQAPHLGSGQPQQNLYHPGALTGTPPSLPPGPSAQSPQSSFPQPAAVYAIHHQQLPHGFTNMAHVTQAHVQTGITAAPPPHPGAPHPPQVMLLHPPQSHGGPPQGAVPQSGVPALSASTPSPYPYIGHPQGEQPGQAPGFPGGADDRIREFSLAGGIWHGRAEGLQVGQDARVLGGE

molecular target: EGFP-tagged PRRSV nucleocapsid (N) protein (PRRSV (type 2, strain 01NP1)); assay: affinity purification with mass spectrometry; EGFP-N (control: EGFP) overexpressed in HEK293T, captured from lysate on GFP-trap agarose beads; lysis and wash buffer 50 mM HEPES pH 7.4, 150 mM NaCl, 1 mM EDTA, 10% glycerol, 1% Triton X-100; 2 h at 4 °C, 7 washes; label-free LC-MS/MS, three biological replicates; hits: mean enrichment ratio >= 8, p <= 0.02

Binder | binding
B1 | binds
B2 | binds
B3 | binds
B4 | binds
B5 | binds

These are yes or no findings as the source states them, for the method shown. In cells and extracts the contact can be indirect. Here binding means that the protein was enriched with, or labelled near, the bait; the list need not be complete.
